Test [1] concerns the target desmin (rat (endogenous in isolated cardiac myocytes)) (UniProt P48675). The test is described as follows: co-IP; lysates of isolated cardiac myocytes (50 ug protein, RIPA buffer, overnight 4 C, protein A/G magnetic beads); IP with anti-desmin or anti-Cx43, blots with anti-desmin or anti-Cx43.
Test [2] deals with desmin overexpressed from the MLV-desmin-EGFP plasmid (UniProt P48675). Description: co-IP; lysates of desmin-overexpressing (OV) cultured skeletal myoblasts (RIPA buffer, protein A/G magnetic beads); IP with anti-desmin, blots with anti-Cx43 and anti-ZO-1; IgG as negative control.

Protein sequences, listed by entry. Tags and fused reporters are not part of them.
UniProt P48675: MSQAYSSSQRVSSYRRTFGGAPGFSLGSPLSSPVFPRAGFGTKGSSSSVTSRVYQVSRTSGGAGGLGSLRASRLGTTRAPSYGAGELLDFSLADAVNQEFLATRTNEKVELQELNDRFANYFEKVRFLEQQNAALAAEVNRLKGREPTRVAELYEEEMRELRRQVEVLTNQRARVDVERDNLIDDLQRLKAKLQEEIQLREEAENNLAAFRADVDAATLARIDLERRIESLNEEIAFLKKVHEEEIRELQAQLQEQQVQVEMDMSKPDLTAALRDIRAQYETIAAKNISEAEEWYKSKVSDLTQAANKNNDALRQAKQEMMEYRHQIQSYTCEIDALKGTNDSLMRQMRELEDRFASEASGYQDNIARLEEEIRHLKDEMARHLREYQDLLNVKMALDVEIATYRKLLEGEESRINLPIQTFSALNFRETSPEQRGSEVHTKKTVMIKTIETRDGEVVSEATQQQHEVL
UniProt P08050: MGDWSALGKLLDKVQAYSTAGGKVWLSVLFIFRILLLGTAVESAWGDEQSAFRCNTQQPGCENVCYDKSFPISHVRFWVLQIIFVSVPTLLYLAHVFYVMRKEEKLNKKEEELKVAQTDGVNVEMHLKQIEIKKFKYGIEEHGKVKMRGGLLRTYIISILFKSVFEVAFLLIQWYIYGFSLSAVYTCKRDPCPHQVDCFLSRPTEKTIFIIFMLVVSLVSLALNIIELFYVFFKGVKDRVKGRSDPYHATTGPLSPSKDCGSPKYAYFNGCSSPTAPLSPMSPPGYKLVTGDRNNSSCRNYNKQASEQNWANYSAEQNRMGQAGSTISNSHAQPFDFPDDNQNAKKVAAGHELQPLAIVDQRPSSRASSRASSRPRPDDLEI
UniProt A0A0G2K2P5: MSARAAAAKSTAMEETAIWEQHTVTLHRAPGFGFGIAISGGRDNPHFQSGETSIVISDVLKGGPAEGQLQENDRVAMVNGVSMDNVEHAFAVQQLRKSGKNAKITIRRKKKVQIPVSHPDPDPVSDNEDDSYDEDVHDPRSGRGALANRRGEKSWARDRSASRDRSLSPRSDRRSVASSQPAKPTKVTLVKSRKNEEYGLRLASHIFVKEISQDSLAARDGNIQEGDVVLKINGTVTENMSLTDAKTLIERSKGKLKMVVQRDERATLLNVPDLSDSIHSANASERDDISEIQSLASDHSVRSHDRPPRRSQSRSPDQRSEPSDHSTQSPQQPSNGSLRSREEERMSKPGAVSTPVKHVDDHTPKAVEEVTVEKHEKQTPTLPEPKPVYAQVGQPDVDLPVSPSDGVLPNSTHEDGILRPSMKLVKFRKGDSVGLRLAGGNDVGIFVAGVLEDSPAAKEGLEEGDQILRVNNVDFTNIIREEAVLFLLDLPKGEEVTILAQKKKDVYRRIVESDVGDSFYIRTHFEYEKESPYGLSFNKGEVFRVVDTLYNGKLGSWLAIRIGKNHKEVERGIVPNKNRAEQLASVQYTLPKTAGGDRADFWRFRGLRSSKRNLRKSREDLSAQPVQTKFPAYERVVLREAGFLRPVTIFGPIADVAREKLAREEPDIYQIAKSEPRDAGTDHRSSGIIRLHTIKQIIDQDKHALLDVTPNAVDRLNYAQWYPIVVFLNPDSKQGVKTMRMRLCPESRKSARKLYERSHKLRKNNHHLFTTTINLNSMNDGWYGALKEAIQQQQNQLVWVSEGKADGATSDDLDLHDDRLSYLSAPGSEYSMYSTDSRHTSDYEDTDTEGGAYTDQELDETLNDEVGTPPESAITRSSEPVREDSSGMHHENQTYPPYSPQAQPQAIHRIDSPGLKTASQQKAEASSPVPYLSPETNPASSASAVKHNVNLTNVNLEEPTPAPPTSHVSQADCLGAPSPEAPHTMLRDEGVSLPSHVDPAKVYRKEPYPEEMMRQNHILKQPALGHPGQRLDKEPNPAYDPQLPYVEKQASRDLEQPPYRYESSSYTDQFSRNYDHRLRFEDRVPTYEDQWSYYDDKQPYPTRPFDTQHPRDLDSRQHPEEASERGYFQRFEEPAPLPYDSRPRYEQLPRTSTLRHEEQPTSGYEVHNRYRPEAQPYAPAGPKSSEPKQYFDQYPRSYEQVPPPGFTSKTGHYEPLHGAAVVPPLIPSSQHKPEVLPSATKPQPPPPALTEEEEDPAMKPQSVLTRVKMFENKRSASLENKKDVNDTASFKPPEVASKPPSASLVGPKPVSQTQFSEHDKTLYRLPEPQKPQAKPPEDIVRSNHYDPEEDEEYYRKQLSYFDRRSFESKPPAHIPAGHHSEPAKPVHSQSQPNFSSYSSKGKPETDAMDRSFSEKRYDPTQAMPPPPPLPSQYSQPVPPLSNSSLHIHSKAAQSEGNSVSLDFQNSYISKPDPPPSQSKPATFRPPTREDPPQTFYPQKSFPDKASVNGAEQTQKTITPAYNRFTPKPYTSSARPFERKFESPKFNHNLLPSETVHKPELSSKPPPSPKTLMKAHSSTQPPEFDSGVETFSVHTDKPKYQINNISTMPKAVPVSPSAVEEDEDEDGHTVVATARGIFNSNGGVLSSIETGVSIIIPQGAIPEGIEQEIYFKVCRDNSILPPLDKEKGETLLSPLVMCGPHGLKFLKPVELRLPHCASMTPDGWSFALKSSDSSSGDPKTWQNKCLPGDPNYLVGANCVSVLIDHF

These are yes or no findings as the source states them, for the method shown. In cells and extracts the contact can be indirect. Some entries that bind do so weakly or less than the wild type.

As to connexin 43 (from UniProt P08050 1-382), the binding entry in test [1] and in test [2] was “binds” each time. Consider “zonula occludens-1 (from UniProt A0A0G2K2P5 1-1765)”, for which the binding result in test [2] is recorded as “binds”.

The values are drawn from paper PMC8275391.
